Data as given in paper PMC9900698, “Phosphorylation Regulation of a Histone-like HU Protein from Deinococcus radiodurans”.
For at least one entry, the source does not settle the construct or the ends of the probe. At least one verdict rests on a figure or table, not on a statement of the authors. Where a protein sequence is shown, tags need not be part of it.

Molecular target: T1, DrHU WT (Deinococcus radiodurans R1 (ATCC13939)) (UniProt Q9RZ89)
T1 sequence (looked up): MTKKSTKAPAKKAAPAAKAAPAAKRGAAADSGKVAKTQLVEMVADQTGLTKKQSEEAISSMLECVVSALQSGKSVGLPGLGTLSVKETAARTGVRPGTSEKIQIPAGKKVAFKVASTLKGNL
Test: hydroxyl radical protection
Conditions: recombinant protein, residues 1-122, protein details: N-terminal His-MBP (pET28a-HMT), removed by TEV

## AAGCTTGCCACCATGTACCCATACGACGTACCAGATTACGCTTTCATCAACGGCTACGCCCCTCAGAATCTGAGCATCAGAGGCGAGTACCAGATCAACTTTCACATCGTGAACTGGAATCTGTCCAACCCTGACCCCACCTCCAGCGAGTACATCACCCTGCTGAGAGATATCCAGGACAAGGTGACAACACTGTACAAGGGCTCCCAGCTGCACGATACCTTCAGATTTTGCCTGGTGACAAATCTGACAATGGATTCCGTGCTGGTGACCGTGAAGGCCCTGTTTAGCTCCAACCTGGACCCCTCCCTGGTGGAGCAGGTGTTCCTGGACAAGACACTGAACGCCAGCTTTCACTGGCTGGGCTCCACCTACCAGCTGGTGGACATCCACGTGACAGAGATGGAGAGCAGCGTGTACCAGCCTACCAGCTCCTCCAGCACCCAGCACTTTTACCTGAATTTCACAATCACCAACCTGCCTTACAGCCAGGACAAGGCCCAGCCCGGCACAACCAACTACCAGAGAAACAAGAGGAATATCGAGGACGCCCTGAATCAGCTGTTCAGGAACTCCAGCATCAAGTCCTACTTTTCCGATTGCCAGGTGTCCACCTTTAGAAGCGTGCCTAATAGACACCACACCGGCGTGGATAGCCTGTGTAATTTTTCCCCCCTGGCCAGAAGAGTGGACAGGGTGGCCATCTACGAGGAGTTTCTGAGAATGACCAGAAACGGCACCCAGCTGCAGAATTTTACCCTGGATAGAAGCTCCGTGCTGGTCGATGGCTACAGCCCTAACAGAAATGAGCCCCTGACCGGCAATTCCGATCTGCCTTTCTGGGCCGTGATCCTGATCGGCCTGGCCGGCCTGCTGGGCGTTATCACATGCCTGATCTGTGGCGTGCTGGTGACAACAAGAAGGAGGAAGAAGGAGGGCGAGTACAATGTGCAGCAGCAGTGCCCCGGCTACTACCAGTCCCACCTGGACCTGGAGGATCTGCAGGATTACAAGGACGACGATGACAAG (double strand) [1-kb duplex DNA]
  binding result: binds
